The other results are listed elsewhere or left out. The data scatter; read single values as rough.

This test relates to Candida albicans SN425. The experiment in a line: biofilm OD600 B-score; higher = more biofilm (less inhibition). The following applies: 10 µM; assay detail: High-throughput adherence inhibition optical density biofilm assay with C. albicans SN425 in RPMI-1640/MOPS pH 7.0, 384-well plates. …. As to the method:
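High-throughput adherence inhibition optical density biofilm assay with C. albicans SN425 in RPMI-1640/MOPS pH 7.0, 384-well plates. Compound (10 µM) was present only during the 90 min adherence step, then washed out, and the biofilm grew 24 h without compound. Biofilm was read as OD600 after removing the media. Scores are the difference from the mean in standard deviations and the plate B-score.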
For `Cc1nc(-c2ccccc2)cc(N2CCCC2)n1`, the “biofilm OD600 B-score” value was found to be 1.56.

As for `CN(C)CCCOc1cccc(Cl)c1`, the “biofilm OD600 B-score” value was 0.0207.

On to `Cc1cc(N)n2nc(-c3ccccc3)cc2n1`, for which the “biofilm OD600 B-score” value was determined as 2.1.

Regarding `Cn1cc(CNC(=O)Nc2ccccc2)cn1`, the “biofilm OD600 B-score” value was -0.381.

In the case of `O=C(Cc1ccc(Br)cc1)N1CCOCC1`, the “biofilm OD600 B-score” value was -1.38.

For `Cc1nc(NC(=O)c2ccc3c(c2)OCO3)sc1C`, the “biofilm OD600 B-score” value was 1.12.

With `COc1ccccc1CNC(=O)COc1cccc(C)c1C`, the “biofilm OD600 B-score” value came to 1.61.

Regarding `c1ccc2[nH]c(SCCN3CCCC3)nc2c1`, the “biofilm OD600 B-score” value is -0.844.

Take `CCC(C)c1ccccc1NS(C)(=O)=O` (centres undefined): the “biofilm OD600 B-score” value is -0.182.

With `O=C(CCC1CCCCC1)Nc1ncn[nH]1`, the “biofilm OD600 B-score” value is 1.1.

Turning to `Cc1cc(C)c(OCCN(C)C)c(Cl)c1`, the “biofilm OD600 B-score” value is -1.49.

With `COc1c[nH]n(C2CCCCC2)c(=O)c1=O`, the “biofilm OD600 B-score” value is -1.52.

Regarding `CCOc1ccccc1OCCOCCN1CC(C)OC(C)C1` (centres undefined), the “biofilm OD600 B-score” value is -2.41.

For the compound `Nc1ccc(Cl)c(NC(=O)CC(=O)c2ccccc2)c1`, the “biofilm OD600 B-score” value worked out at 1.71.

With `COc1ccc(/C=C/c2ccc3cccc(O)c3n2)cc1O`, the “biofilm OD600 B-score” value is 1.27.

For the compound `O=C(CSc1ccccn1)c1ccc(F)cc1`, the “biofilm OD600 B-score” value was -0.00801.

In the case of `CC(=O)NC12CC3CC(CC(O)(C3)C1)C2`, the “biofilm OD600 B-score” value was found to be 1.56.

`C=CCNc1nc(-c2c(C)nc3ccccn23)cs1`: the “biofilm OD600 B-score” value was -0.0119.

Take `O=C(Nc1cccc(Cl)c1)N1CCN(c2ccccc2F)CC1`: the “biofilm OD600 B-score” value was determined as 0.787.

Regarding `CN(C)c1ccc(N2CC(C(=O)O)CC2=O)cc1` (centres undefined), the “biofilm OD600 B-score” value is -0.00344.

As for `O=C(Nc1ccccc1C(=O)N1CCCC1)c1ccc(CN2CCOCC2)cc1`, the “biofilm OD600 B-score” value was -0.919.

For the compound `COc1c(Cl)cccc1NC(=O)c1cccs1`, the “biofilm OD600 B-score” value is -1.81.

Consider `O=C(Nc1cccc(Cl)c1)NC1CC1`, for which the “biofilm OD600 B-score” value was 2.9.

Consider `OCCN1CCN(CC(O)COCc2ccccc2)CC1` (centres undefined), for which the “biofilm OD600 B-score” value is -0.049.
